Reference: US12398179B2, “Nanomolar peptides and derivatives to differentially modulate ephrin receptors” (Sanford Burnham Prebys Medical Discovery Institute, priority 2019, dated 2025)
Not every detail of the peptide structures is certain; ends, links or a residue may be inferred.

Sequences of proteins named here, by UniProt entry; tags and fusion partners are left off. Residues count along the entry.
UniProt P29317, 24-976: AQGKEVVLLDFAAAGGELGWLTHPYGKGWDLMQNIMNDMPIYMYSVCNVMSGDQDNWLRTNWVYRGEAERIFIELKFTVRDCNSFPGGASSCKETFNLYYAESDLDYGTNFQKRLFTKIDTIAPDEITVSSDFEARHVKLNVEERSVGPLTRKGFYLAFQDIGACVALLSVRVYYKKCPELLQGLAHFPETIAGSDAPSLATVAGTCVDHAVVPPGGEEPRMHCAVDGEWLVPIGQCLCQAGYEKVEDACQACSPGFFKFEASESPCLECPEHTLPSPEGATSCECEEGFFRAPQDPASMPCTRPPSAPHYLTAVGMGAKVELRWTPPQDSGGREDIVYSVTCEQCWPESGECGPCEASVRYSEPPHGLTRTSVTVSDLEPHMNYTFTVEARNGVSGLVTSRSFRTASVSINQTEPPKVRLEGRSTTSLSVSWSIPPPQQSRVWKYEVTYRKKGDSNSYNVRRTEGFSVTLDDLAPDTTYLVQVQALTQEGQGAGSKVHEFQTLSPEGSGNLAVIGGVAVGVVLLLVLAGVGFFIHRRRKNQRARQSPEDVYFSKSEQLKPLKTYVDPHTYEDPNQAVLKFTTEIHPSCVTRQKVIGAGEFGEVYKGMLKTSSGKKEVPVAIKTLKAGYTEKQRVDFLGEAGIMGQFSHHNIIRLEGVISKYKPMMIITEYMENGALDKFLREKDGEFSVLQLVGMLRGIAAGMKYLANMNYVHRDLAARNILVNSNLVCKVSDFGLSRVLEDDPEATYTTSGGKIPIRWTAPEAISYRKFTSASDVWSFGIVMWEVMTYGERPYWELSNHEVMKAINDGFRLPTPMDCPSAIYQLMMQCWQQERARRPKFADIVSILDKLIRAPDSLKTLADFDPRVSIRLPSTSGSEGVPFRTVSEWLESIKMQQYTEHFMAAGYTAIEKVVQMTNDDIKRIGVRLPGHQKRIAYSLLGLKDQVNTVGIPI

Key:
Format in all cases: cell-based
EphA2 [1] = molecular target: T1, EphA2 (Homo sapiens, UniProt P29317); assay: Inhibition of ephrin-A1 Fc-induced EphA2 Y588 phosphorylation in PC3 cells; parameters: endogenous EphA2 expressed in PC3 prostate cancer cells; endogenous in cells; host or cells: PC3 prostate cancer cells; settings: 20 min peptide then 0.1 μg/ml ephrin-A1 Fc
Method: PC3 cells were treated for 20 min with different concentrations of the indicated peptides and then activated with 0.1 μg/ml ephrin-Al Fc. The immunoblots show EphA2 autophosphorylation on tyrosine 588 (pY588, indicative of receptor activation), total EphA2 levels, and AKT phosphorylation on S473 (indicative of AKT activation). pY588 values were normalized to the value obtained in the same blot with ephrin-Al Fc treatment in the absence of peptide. pAKT values were normalized to the value obtained in the same blot without ephrin-A1 Fc or peptide treatment. Calculated EC50 and IC50 values are shown. The graphs show quantification of pY588 and pAKT from 7 blots for each peptide (averages±SE), normalized to total EphA2 levels.

EphA2 [2] = molecular target: T1, EphA2; assay: EphA2 Y588 autophosphorylation in PC3 cells (immunoblot); parameters: endogenous EphA2 expressed in PC3 prostate cancer cells; endogenous in cells; host or cells: PC3 prostate cancer cells; settings: 15 min
Method: (§1) PC3 cells were treated for 15 min with different concentrations of the indicated peptides. […] The graphs show quantification of pY588 and pAKT from multiple blots (averages±SE), normalized to total EphA2 levels. The number of experiments analyzed is: 5 in FIG. 4A, 3 in FIG. 4B, 7 in FIG. 4C, 7 in FIG. 4D, 5 in FIG. 4E, 3 in FIG. 4F, 3 in FIG. 4G and 2 in FIG. 4H.
PC3 cells were treated for 15 min with different concentrations of the indicated peptides. […] The graphs show quantification of pY588 or pAKT from multiple blots (averages±SE), normalized to total EphA2 levels. The number of experiments analyzed is: 3 in FIG. 10A, 6 in FIG. 10B, 2 in FIG. 10C, 5 in FIG. 10D, 4 in FIG. 10E and 3 in FIG. 10F.

AKT = AKT S473 phosphorylation in PC3 cells (immunoblot); settings: peptide then 0.1 μg/ml ephrin-A1 Fc
Method: as §1

Structure (SMILES): CC(C)C[C@H](NC(=O)[C@H](Cc1c[nH]c2ccccc12)NC(=O)[C@H](C)NC(=O)[C@@H](N)CCCCNC(=O)CCCC[C@@H]1SC[C@@H]2NC(=O)N[C@@H]21)C(=O)N[C@@H](C)C(=O)N[C@@H](Cc1ccc(O)cc1)C(=O)N1CCC[C@H]1C(=O)N[C@@H](CC(=O)O)C(=O)N[C@@H](CO)C(=O)N[C@H](C(=O)N1CCC[C@H]1C(=O)N[C@@H](Cc1ccc(O)cc1)C(=O)N[C@@H](CCCNC(=N)N)C(=O)N1CCC[C@H]1C(=O)N[C@@H](CCCCN)C(N)=O)C(C)C [K-bioA-WLA-YRPKam]
- effect on EphA2 Y588 phosphorylation induced by ephrin-A1 Fc (EphA2 [1]): inhibited
- EphA2 activation / Y588 phosphorylation (in words) (EphA2 [2]): did not efficiently activate EphA2
- effect on AKT inhibition caused by EphA2 activation (AKT): prevented the inhibitory effects
